Assay results reported in PubChem BioAssay AID493014 (National Center for Advancing Translational Sciences (NCATS), 2011).
Several values for one entry are separate records, joined by “and”; a condition that tells them apart may be missing. Identical values can stand only once. The list shows a part of the results. Further columns of the screen follow, without active or inactive calls. The list favours compounds with an active or inconclusive main result. The note in brackets gives the kind of curve behind each potency; many fits are weak.

Assay: qHTS Assay to Find Inhibitors of Chronic Active B-Cell Receptor Signaling
Conditions: ABC-DLBCL IkBa-CBG/CBR reporter, luminescence ratio (green luciferase fused to IkBa over red control in TMD8 lymphoma cells), 4 h
In short: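 Doxycycline induced both beetle luciferases in TMD8 lymphoma cells; IKK-driven degradation limits the IkappaBalpha-fused green signal, while red luminescence normalises for cell number and nonspecific effects. Compounds tested up to 46 uM, 4 hrs.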

[1] = measured here: CBR red luminescence, cell number
[2] = measured here: IkBa-CBG green luminescence

| SMILES | AC50 [1] | AC50 [2] |
| --- | --- | --- |
| COc1ccc(C)cc1NC(=O)C(OC(=O)CNC(=O)c1ccc(Br)cc1)c1ccccc1 (centres undefined) | 32.6 µM [rising, partial curve, poor fit] |  |
| COc1cccc(N2CCN(C(=O)c3cc4ccc(OC)cc4[nH]3)CC2)c1 | 14.1 µM [falling, partial curve, poor fit] |  |
| CC1=NN(/C(=N\c2nnc(C)s2)Nc2ccc(C(C)(C)C)cc2)[C@H](c2ccc(C)cc2)S1 |  | 29.1 µM [rising, partial curve, poor fit] |
| COc1ccc(CN2CCN(Cc3cc(=O)oc4cc(C)ccc34)CC2)c(OC)c1OC | 14.1 µM [falling, single point] |  |
| CN(C)c1ccc(C(CNS(=O)(=O)c2ccc(F)cc2)c2c[nH]c3ccccc23)cc1 (centres undefined) | 9.2 µM [falling, partial curve, poor fit] |  |
| CC(=O)NC(=S)Nc1cccc2ccc(C)nc12 | 7.08 µM [falling, partial curve] |  |
| CN1C(=O)/C(=C/c2cn(CC(=O)N3CCCCC3)c3ccccc23)c2ccccc21 | 13 µM [falling, partial curve, poor fit] |  |
| Cc1ccc([N+](=O)[O-])c(-c2n[nH]c(=S)n2-c2cccc(Cl)c2)c1 | 0.112 µM [rising, full curve, poor fit] |  |
| O=C(N/N=C/C(Br)=C/c1ccccc1)c1ccccc1F | 14.1 µM [falling, partial curve] |  |
| O=C(N/N=C/c1ccccc1)c1ccc2c(c1)OCO2 | 4.47 µM [falling, partial curve, poor fit] |  |
| COC(=O)c1nn(Cc2ccccc2)c(=O)c2ccccc12 | 2.59 µM [falling, partial curve, poor fit] |  |
| CN1c2ccc([N+](=O)[O-])cc2N(C)C1(C)c1ccccc1 (centres undefined) | 15.8 µM [rising, partial curve, poor fit] |  |
| C/C(CC(=O)Nc1ccc(Cl)cc1Cl)=N\NC(=O)c1cnccn1 | 10 µM [falling, partial curve, poor fit] |  |
| Cc1nnc(NC(=O)c2cccc(S(=O)(=O)N3CCc4ccccc43)c2)s1 | 0.0731 µM [rising, full curve, poor fit] |  |
| CC1(C)CC(NS(=O)(=O)OCC(Cl)(Cl)Cl)c2cc(C#N)ccc2O1 (centres undefined) | 15.8 µM [falling, partial curve, poor fit] |  |
| COc1ccc(CNC(=O)COC(=O)c2c(C)nn(-c3ccccc3)c2C)cc1OC | 7.31 µM [falling, partial curve, poor fit] |  |
| CCN1CCN(CCCNC(=O)c2ccc(/C=C3/Oc4ccccc4N(Cc4cccc(C)c4)C3=O)cc2)CC1 | 5.62 µM [rising, full curve] |  |
| CCC(/C=N/NC(=O)C(=O)N/N=C/C(CC)CC)CC | 0.0517 µM [rising, full curve, poor fit] |  |
| COc1ccc(/C=N/Nc2ccccn2)cc1O | 35.5 µM [falling, single point] |  |
| COc1ccc(NC(=O)COc2ccc(/C=N/O)cc2OC)cc1 | 11.2 µM [falling, single point] |  |
| Oc1c(C=Nc2cccc3cccnc23)sc2ccccc12 | 11.6 µM [falling, partial curve, poor fit] |  |

| SMILES | AC50 [1] | AC50 [2] |
| --- | --- | --- |
| CCOC(=O)/C(=C/c1ccc(N2CCC(c3ccccc3)=N2)cc1)C(C)=O | 4.11 µM [rising, partial curve, poor fit] |  |
| CC(=O)/C(N=Nc1ccc(OC(F)(F)F)cc1)=C(\C)O | 35.5 µM [rising, single point] |  |
| Cc1cc(C)c(C)c(C(=O)c2ccccc2C(=O)O)c1C | 11.2 µM [rising, partial curve, poor fit] |  |
| CN1C=C/C(=C\c2cc[n+](C)c3ccccc23)c2ccccc21 | 1.26 µM [falling, full curve, poor fit] |  |
| COC(=O)/C=C(\Oc1ccccc1)C1(O)CCCCC1 | 35.5 µM [rising, single point] |  |
| Cc1ccc(NC(=O)Cn2nnc(C(=O)NCc3ccccc3)c2N)cc1C | 23.1 µM [rising, single point] |  |
| Cc1cc(C)c2ccc(/C=N/O)nc2c1O | 11.2 µM [rising, partial curve, poor fit] | 11.2 µM [falling, partial curve] |
| CCCCn1c2ccccc2c2nnc(SCC(=O)NC3=NN=C(c4ccccc4)CS3)nc21 | 20.6 µM [falling, partial curve] |  |
| COc1cccc(NC(=O)CN(C)C(C)C(=O)Nc2cc([N+](=O)[O-])ccc2Cl)c1 (centres undefined) | 35.5 µM [falling, single point] |  |
| CN(C)C(=O)c1cccc(-c2csc(N3CCC(C(N)=O)CC3)n2)c1 | 29.1 µM [rising, single point] and 5.17 µM [rising, full curve, poor fit] |  |
| COc1ccc(S(=O)(=O)NCc2ccccc2Cl)cc1OC | 23.1 µM [rising, single point] |  |
| CCOC(=O)c1sc(NC(=O)CSc2nnc(C)s2)c(C(=O)OCC)c1C | 2.51 µM [falling, partial curve, poor fit] |  |
| NC(=O)c1c(NC(=O)C2CCCO2)sc2c1CCCC2 (centres undefined) | 6.51 µM [falling, single point] |  |
| Cc1cc(C)cc(OCC(=O)N(Cc2cccs2)C2CCS(=O)(=O)C2)c1 (centres undefined) | 25.9 µM [rising, single point] |  |
| O=C(OCCN=C1NS(=O)(=O)c2ccccc21)C1CC(=O)N(c2ccc3ccccc3c2)C1 (centres undefined) | 1.84 µM [rising, full curve] |  |
| O=C(N/N=C/C(c1ccccc1)c1ccccc1)c1ccccc1F | 35.5 µM [falling, single point] |  |
| CCOC(=O)NC(=O)CN1C(=O)NC(C)(c2ccccc2)C1=O (centres undefined) | 3.16 µM [falling, single point] |  |
| Cc1ccc(S(=O)(=O)Nc2ccccc2-c2ccccc2NS(=O)(=O)c2ccc(C)cc2)cc1 | 12.6 µM [falling, partial curve, poor fit] |  |
| O=c1c(-c2cccc(Cl)c2)c[nH]n1-c1ccccc1 | 0.708 µM [falling, full curve] |  |
| O=C(Nc1ccccc1C(=O)N/N=C/c1ccccc1)c1ccco1 | 4.47 µM [falling, partial curve] |  |
| CN1OC2C(=O)N(c3ccccc3)C(=O)C2C1c1ccc(F)cc1 (centres undefined) | 10 µM [rising, partial curve, poor fit] |  |

| SMILES | AC50 [1] | AC50 [2] |
| --- | --- | --- |
| Cc1csc(NC(=O)CS(=O)(=O)Cc2ccccc2)n1 | 20 µM [falling, partial curve, poor fit] |  |
| COc1cc(CNC(C)c2ccccc2)cc(Br)c1OCc1ccccc1 (centres undefined) | 35.5 µM [falling, single point] |  |
| CC1CN(CCOc2ccc(Cl)c(Cl)c2)CC(C)O1 (centres undefined) | 35.5 µM [rising, single point] |  |
| Cc1[nH]c2ccccc2c1CCNC(=O)c1ccc2nccnc2c1 | 12.6 µM [falling, partial curve, poor fit] |  |
| O=C(CCCN1C(=O)CSc2ncccc21)N1CCN(c2cccc(C(F)(F)F)c2)CC1 | 29.1 µM [falling, single point] |  |
| COc1ccccc1CNC(=O)CN(C)CC(=O)Nc1cccc(F)c1 | 22.4 µM [rising, single point] |  |
| CSc1cccc(NC(=S)N2CCC(N(C)C3CCCCC3C)CC2)c1 (centres undefined) | 11.2 µM [falling, partial curve, poor fit] |  |
| O=C(CSc1ccc(-c2ccccc2)nn1)c1cccs1 | 11.2 µM [falling, partial curve] |  |
| Clc1ccc(-c2csc(N/N=C/c3ccco3)n2)cc1 | 10 µM [falling, partial curve] |  |
| COC(=O)CCn1nnc(-c2ccc(C)cc2)n1 | 1.16 µM [rising, full curve] |  |
| COc1ccc2c(c1)Cc1sc(NC(=O)c3cccs3)nc1-2 | 7.31 µM [falling, partial curve, poor fit] |  |
| Clc1ccc(Sc2cc(Cl)c(-c3ccccc3)nn2)cc1 | 0.562 µM [falling, full curve, poor fit] |  |
| Cc1cc(Br)cc(C)c1NC(=S)NC(=O)CC(C)C | 0.461 µM [falling, partial curve, poor fit] |  |
| CCCC(=O)C1C(=O)CC(CC(C)SCC)CC1=O (centres undefined) | 2.91 µM [rising, single point] |  |
| CCOC(=O)c1sc(=NC(=O)c2ccc(S(=O)(=O)N(C)c3ccccc3)cc2)n(C)c1C | 14.1 µM [rising, single point] |  |
| COc1ccc(OC)c2sc(N3CCN(C(=O)C(C)(C)C)CC3)nc12 | 11.2 µM [rising, single point] |  |
| C=C(C)C(=O)Nc1cccc(C2=NOC3(C2)C[C@@H](C(N)=O)N(C(=O)CCCCC)C3)c1 (some centres undefined) | 4.47 µM [rising, full curve, poor fit] |  |
| Cn1c(=O)[nH]c(=O)c2c1nc(N1CCCCC1)n2C/C=N/Nc1ccc(C(=O)O)cc1 | 1.78 µM [falling, full curve] |  |
| Cc1ccc(N2CC(C(=O)NCCCn3ccnc3)CC2=O)cc1 (centres undefined) | 2.59 µM [falling, single point] |  |
| COc1ccccc1OCCSc1nc(C)c(Cc2ccccc2)c(=O)[nH]1 | 8.91 µM [falling, partial curve, poor fit] |  |
| CCn1c(SCC(=O)Nc2ccc(NC(C)=O)cc2)nc2c1c(=O)n(C)c(=O)n2C | 2.82 µM [rising, partial curve, poor fit] |  |
